From paper PMC9481463
No constants are given. Whether binding was seen depends on the method and setting. Binding seen in cells or lysates may run through a third protein. Here binding means that the protein was enriched with, or labelled near, the bait; the list need not be complete.

B1: PURβ (protein, UniProt Q96QR8 1-312)
chain: MADGDSGSERGGGGGPCGFQPASRGGGEQETQELASKRLDIQNKRFYLDVKQNAKGRFLKIAEVGAGGSKSRLTLSMAVAAEFRDSLGDFIEHYAQLGPSSPEQLAAGAEEGGGPRRALKSEFLVRENRKYYLDLKENQRGRFLRIRQTVNRGGGGFGAGPGPGGLQSGQTIALPAQGLIEFRDALAKLIDDYGGEDDELAGGPGGGAGGPGGGLYGELPEGTSITVDSKRFFFDVGCNKYGVFLRVSEVKPSYRNAITVPFKAWGKFGGAFCRYADEMKEIQERQRDKLYERRGGGSGGGEESEGEEVDED
B2: NOP58 (protein, UniProt Q9Y2X3 1-529)
chain: MLVLFETSVGYAIFKVLNEKKLQEVDSLWKEFETPEKANKIVKLKHFEKFQDTAEALAAFTALMEGKINKQLKKVLKKIVKEAHEPLAVADAKLGGVIKEKLNLSCIHSPVVNELMRGIRSQMDGLIPGVEPREMAAMCLGLAHSLSRYRLKFSADKVDTMIVQAISLLDDLDKELNNYIMRCREWYGWHFPELGKIISDNLTYCKCLQKVGDRKNYASAKLSELLPEEVEAEVKAAAEISMGTEVSEEDICNILHLCTQVIEISEYRTQLYEYLQNRMMAIAPNVTVMVGELVGARLIAHAGSLLNLAKHAASTVQILGAEKALFRALKSRRDTPKYGLIYHASLVGQTSPKHKGKISRMLAAKTVLAIRYDAFGEDSSSAMGVENRAKLEARLRTLEDRGIRKISGTGKALAKTEKYEHKSEVKTYDPSGDSTLPTCSKKRKIEQVDKEDEITEKKAKKAKIKVKVEEEEEEKVAEEEETSVKKKKKRGKKKHIKEEPLSEEEPCTSTAIASPEKKKKKKKKRENED

Target: T1, purine-rich element binding protein alpha (PURα) (human (endogenous in KYSE510)) (UniProt Q00577)
T1 sequence: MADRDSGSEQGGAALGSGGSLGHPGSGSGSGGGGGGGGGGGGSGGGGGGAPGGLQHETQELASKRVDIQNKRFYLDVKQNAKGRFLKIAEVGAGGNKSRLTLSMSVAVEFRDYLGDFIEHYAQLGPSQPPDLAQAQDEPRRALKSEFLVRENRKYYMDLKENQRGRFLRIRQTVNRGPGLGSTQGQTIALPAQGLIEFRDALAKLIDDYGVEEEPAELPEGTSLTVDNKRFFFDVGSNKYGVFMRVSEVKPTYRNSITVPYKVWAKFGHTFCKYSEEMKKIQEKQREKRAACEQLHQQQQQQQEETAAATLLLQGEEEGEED
Test: affinity purification with mass spectrometry; whole-cell extracts of KYSE510 cells immunoprecipitated with anti-PURα antibody or rabbit IgG on magnetic beads; on-bead trypsin; label-free quantification (LFQ) LC-MS/MS; criteria unique peptides ≥1 and LFQ intensity ratio ≥1.8

Row | Binder | binding
1 | B1 | binds
2 | B2 | binds
